Laboratory results from PubChem BioAssay AID1487 (National Center for Advancing Translational Sciences (NCATS), 2009).
Several values for one entry are separate records, joined by “and”; a condition that tells them apart may be missing. Equal values may be shown once. This is one part of the list. These are further read-outs of the screen, such as a control signal, another cell line or another target. No call is given for them. The list favours compounds with an active or inconclusive main result. Potencies come from curve fits of mixed quality, noted in brackets.

Assay: qHTS Assay for Modulators of Lamin A Splicing
Settings: HeLa LMNA splicing GFP/RFP minigene ratio, 48 h
How it was run: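 S3 HeLa stable clones carrying a lamin A-EGFP splicing minigene plus DsRed2 were seeded at 600 cells/well in Opti-MEM with 2% FBS, pin-dosed and incubated 48 h at 37°C. Acumen cytometry (488 nm) gave the GFP/RFP total-intensity ratio.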

[1] = measured here: GFP splicing reporter channel
[2] = measured here: RFP viability control channel

Structure (SMILES): CSc1ccccc1C(=O)C1CCCN(Cc2cccc(C)n2)C1 (stereo not drawn)
- AC50 [1]: 15.8 µM [falling, single point]

Structure (SMILES): CCN(CC)C(=O)c1ccc(NC(=O)COc2ccc([N+](=O)[O-])cc2Cl)cc1
- AC50 [2]: 14.1 µM [rising, partial curve]

Structure (SMILES): NC(N)=NOCCC(N)C(=O)O (stereo not drawn)
- AC50 [2]: 6.31 µM [falling, partial curve, poor fit]

Structure (SMILES): Cc1ccc(-c2nn3c(C)nnc3c3ccccc23)cc1S(=O)(=O)NCCO
- AC50 [1]: 22.4 µM [falling, partial curve]
- AC50 [2]: 35.5 µM [falling, partial curve, poor fit]

Structure (SMILES): CN1CCC[C@@H]1c1cccnc1
- AC50 [1]: 1.78 µM [falling, partial curve, poor fit]
- AC50 [2]: 0.00447 µM [rising, full curve, poor fit]

Structure (SMILES): O=C(COc1ccccc1)N1CCN(Cc2c[nH]c3ccccc23)CC1
- AC50 [1]: 14.1 µM [rising, partial curve]
- AC50 [2]: 15.8 µM [rising, single point]

Structure (SMILES): Cc1cccc(Cn2cccc(C(=O)Nc3ccc(F)cc3F)c2=O)c1
- AC50 [1]: 0.112 µM [rising, full curve, poor fit]

Structure (SMILES): O=c1c2cc(N3CCOCC3)ccc2[nH]c(=S)n1Cc1ccc(Cl)cc1
- AC50 [2]: 7.08 µM [rising, partial curve]

Structure (SMILES): CN1CC[C@@]2(C)c3cc(O)ccc3N(C)C12 (stereo partly drawn)
- AC50 [1]: 11.2 µM [falling, partial curve]
- AC50 [2]: 22.4 µM [falling, partial curve]

Structure (SMILES): Cc1cc(NC(=O)COC(=O)c2c(C)nn(Cc3ccccc3Cl)c2C)no1
- AC50 [1]: 35.5 µM [falling, single point]
- AC50 [2]: 25.1 µM [falling, partial curve]

Structure (SMILES): O=[N+]([O-])c1ccc2nc(CCCc3nc4ccc([N+](=O)[O-])cc4[nH]3)[nH]c2c1
- AC50 [1]: 0.316 µM [falling, full curve]
- AC50 [2]: 0.355 µM [falling, full curve]

Structure (SMILES): CN1CCN(c2cc(N3CCCCCC3)c(F)cc2[N+](=O)[O-])CC1
- AC50 [1]: 20 µM [rising, partial curve, poor fit]
- AC50 [2]: 22.4 µM [rising, partial curve, poor fit]

Structure (SMILES): CC(C)OC(=O)c1c(N)n(Cc2ccco2)c2nc3ccccc3nc12
- AC50 [2]: 5.62 µM [falling, single point]

Structure (SMILES): CN(C)c1ccc(P(=O)(Nc2ccc([N+](=O)[O-])cc2)N2CCOCC2)c(NC(=O)c2cccs2)c1 (stereo not drawn)
- AC50 [2]: 0.282 µM [rising, partial curve, poor fit]

Structure (SMILES): COC(=O)[C@@H]1C[C@H]1[C@@H](NP(=O)(c1ccccc1)c1ccccc1)c1ccccc1
- AC50 [2]: 11.2 µM [rising, partial curve]

Structure (SMILES): C/C(=N\NC(=O)c1ccncc1)c1c(O)n(-c2ccccc2)c(=O)[nH]c1=O
- AC50 [1]: 20 µM [rising, partial curve, poor fit]

Structure (SMILES): c1ccc2c(c1)[I+]c1ccccc1-2
- AC50 [1]: 2.51 µM [falling, full curve, poor fit]
- AC50 [2]: 5.62 µM [falling, partial curve]

Structure (SMILES): N#Cc1cc2c(nc1SCC(=O)Nc1ccc(Cl)cc1)C1CCN2CC1
- AC50 [2]: 15.8 µM [rising, partial curve]

Structure (SMILES): CN(C)C(=O)Oc1cc(OC(=O)N(C)C)cc([C@@H](O)CNC(C)(C)C)c1
- AC50 [1]: 1.41 µM [rising, single point]
- AC50 [2]: 0.0891 µM [rising, partial curve, poor fit]

Structure (SMILES): O=C(c1ccc2c(c1)N(Cc1ccc(F)cc1)C(=O)c1ccccc1S2)N1CCC2(CC1)OCCO2
- AC50 [1]: 0.158 µM [falling, full curve, poor fit]

Structure (SMILES): O=[N+]([O-])c1cc([As](=O)(O)O)ccc1O
- AC50 [2]: 0.355 µM [falling, full curve, poor fit]

Structure (SMILES): O=S(=O)(O)c1cc(O)ccc1O
- AC50 [1]: 0.282 µM [falling, full curve]
- AC50 [2]: 0.141 µM [falling, full curve]

Structure (SMILES): NC(=O)c1ncn([C@H]2O[C@@H](CO)[C@@H](O)[C@@H]2O)n1
- AC50 [1]: 3.16 µM [falling, single point]
- AC50 [2]: 3.16 µM [falling, single point]

Structure (SMILES): O=[N+]([O-])c1cc(I)c(O)c(I)c1
- AC50 [1]: 0.794 µM [rising, full curve, poor fit]
- AC50 [2]: 35.5 µM [falling, single point]

Structure (SMILES): CN(C)CC/C=C1\c2ccccc2Sc2ccc(Cl)cc21
- AC50 [1]: 282 nM [falling, full curve, poor fit] and 2.51 nM [falling, full curve, poor fit]
- AC50 [2]: 8.91 µM [rising, partial curve, poor fit] and 25.1 µM [rising, partial curve]

Structure (SMILES): CNc1ccc2oc(C[C@H]3O[C@@]4(CC[C@H]3C)O[C@H]([C@H](C)C(=O)c3ccc[nH]3)[C@H](C)C[C@H]4C)nc2c1C(=O)O
- AC50 [1]: 2.82 µM [falling, full curve]
- AC50 [2]: 3.16 µM [falling, full curve]

Structure (SMILES): COc1ccc(C2=NCc3nnc(C)n3-c3ccc(Cl)cc32)cc1Cl
- AC50 [2]: 12.6 µM [rising, partial curve]

Structure (SMILES): COc1cccc(CN2CCN(C(=O)COc3ccc4ccccc4c3)CC2)c1
- AC50 [2]: 35.5 µM [rising, single point]

Structure (SMILES): Cc1ccc(-n2ncc(C(=O)N3CCN(c4ccc(Cl)cc4)CC3)c2C2CCN(C(=O)OC(C)(C)C)CC2)c(C)c1
- AC50 [2]: 35.5 µM [rising, single point]

Structure (SMILES): COc1ccc2c(c[n+](C)c3c4cc5c(cc4ccc23)OCO5)c1OC
- AC50 [1]: 2.82 µM [falling, full curve]
- AC50 [2]: 3.16 µM [falling, full curve]

Structure (SMILES): CCN1CC2(COC(=O)c3ccccc3N)CCC(OC)C34C5CC6C(OC)CC(O)(C5C6OC)C(O)(C(OC)C23)C14 (stereo not drawn)
- AC50 [2]: 0.0794 µM [falling, full curve, poor fit]

Structure (SMILES): Cc1ccc(C(=O)O)cc1N=Nc1c(O)[nH]c(=O)[nH]c1=O
- AC50 [1]: 0.251 µM [rising, full curve, poor fit]
- AC50 [2]: 0.158 µM [rising, full curve, poor fit]
